Experimental data reported in paper PMC12016516.

Protein sequences, listed by entry. Tags and fused reporters are not part of them. Lines headed by an entry give the natural chain unless they say otherwise; changes in a name come on top.
UniProt Q5JIK0: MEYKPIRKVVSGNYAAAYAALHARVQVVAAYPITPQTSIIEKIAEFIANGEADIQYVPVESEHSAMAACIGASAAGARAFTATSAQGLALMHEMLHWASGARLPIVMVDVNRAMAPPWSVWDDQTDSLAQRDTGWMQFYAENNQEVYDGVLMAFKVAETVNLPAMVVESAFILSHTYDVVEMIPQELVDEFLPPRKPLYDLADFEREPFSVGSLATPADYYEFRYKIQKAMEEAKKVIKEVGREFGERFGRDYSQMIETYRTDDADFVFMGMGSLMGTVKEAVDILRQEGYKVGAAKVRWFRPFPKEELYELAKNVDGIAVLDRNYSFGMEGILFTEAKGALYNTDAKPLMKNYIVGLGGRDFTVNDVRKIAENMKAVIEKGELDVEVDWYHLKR
UniProt Q5JIJ6: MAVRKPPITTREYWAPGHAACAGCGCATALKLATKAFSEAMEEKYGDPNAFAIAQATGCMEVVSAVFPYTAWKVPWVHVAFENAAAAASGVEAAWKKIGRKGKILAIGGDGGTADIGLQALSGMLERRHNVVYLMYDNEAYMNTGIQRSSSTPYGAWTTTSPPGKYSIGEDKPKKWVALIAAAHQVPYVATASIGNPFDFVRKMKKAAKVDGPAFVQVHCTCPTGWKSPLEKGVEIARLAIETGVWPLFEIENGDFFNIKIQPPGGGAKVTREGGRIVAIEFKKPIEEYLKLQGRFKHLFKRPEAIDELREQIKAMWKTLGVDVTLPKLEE

What was measured:
Assay in all cases: affinity purification with mass spectrometry; HA- and His6-tagged bait made from its native locus, captured from clarified T. kodakarensis lysate on a Ni2+-charged chelating column (buffer A: 10 mM Tris HCl pH 8.0, 500 mM NaCl, 10% glycerol), eluted with an imidazole gradient; pooled fractions identified by MuDPIT LC-MS/MS and compared with the parental strain TS559 (P < 0.05, log2 fold change ≥ 2); cells grown at 85°C with (+S˚) or without (–S˚) elemental sulfur
[1] = target: T1, 2-Oxoisovalerate-ferredoxin oxidoreductase, δ subunit (Thermococcus kodakarensis) (UniProt Q5JIK1)
T1 sequence: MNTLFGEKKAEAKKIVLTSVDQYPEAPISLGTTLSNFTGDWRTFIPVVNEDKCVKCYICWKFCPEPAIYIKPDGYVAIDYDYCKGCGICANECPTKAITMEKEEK

[2] = target: T2, 2-Oxoisovalerate-ferredoxin oxidoreductase, γ subunit (Thermococcus kodakarensis) (UniProt Q5JIK2)
T2 sequence: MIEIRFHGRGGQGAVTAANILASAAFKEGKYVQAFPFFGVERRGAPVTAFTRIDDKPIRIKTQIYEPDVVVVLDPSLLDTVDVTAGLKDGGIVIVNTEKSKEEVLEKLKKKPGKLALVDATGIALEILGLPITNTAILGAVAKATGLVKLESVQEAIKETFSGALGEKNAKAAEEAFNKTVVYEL

[3] = target: 2-Oxoisovalerate-ferredoxin oxidoreductase, α subunit (Thermococcus kodakarensis) (UniProt Q5JIK0)
[4] = target: T3, 2-Oxoisovalerate-ferredoxin oxidoreductase, β subunit (Thermococcus kodakarensis) (UniProt Q5JIJ9)
T3 sequence: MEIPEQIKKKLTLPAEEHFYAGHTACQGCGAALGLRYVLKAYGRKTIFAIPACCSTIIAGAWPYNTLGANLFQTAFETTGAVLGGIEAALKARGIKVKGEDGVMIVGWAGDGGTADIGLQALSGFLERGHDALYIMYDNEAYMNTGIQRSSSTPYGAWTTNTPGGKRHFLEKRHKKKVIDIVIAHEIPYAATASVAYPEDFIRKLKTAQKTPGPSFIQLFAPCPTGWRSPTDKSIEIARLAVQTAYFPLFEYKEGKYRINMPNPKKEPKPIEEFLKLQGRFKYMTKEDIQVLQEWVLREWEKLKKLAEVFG

[5] = target: T4, Formate dehydrogenase, [4Fe-4S] cluster-binding protein, FDHγ3 (Thermococcus kodakarensis) (UniProt Q5JHV9)
T4 sequence: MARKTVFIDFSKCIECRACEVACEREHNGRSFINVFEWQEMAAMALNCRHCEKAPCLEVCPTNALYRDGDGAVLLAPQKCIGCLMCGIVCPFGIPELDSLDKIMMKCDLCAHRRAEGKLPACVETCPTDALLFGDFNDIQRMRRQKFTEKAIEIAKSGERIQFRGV

[6] = target: Pyruvate:ferredoxin oxidoreductase, β subunit (Thermococcus kodakarensis) (UniProt Q5JIJ6)
[7] = target: T5, Pyruvate:ferredoxin oxidoreductase, δ subunit (Thermococcus kodakarensis) (UniProt Q5JIJ8)
T5 sequence: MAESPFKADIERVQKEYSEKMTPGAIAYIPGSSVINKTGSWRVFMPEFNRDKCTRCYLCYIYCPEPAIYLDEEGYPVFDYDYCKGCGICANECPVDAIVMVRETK

[8] = target: T6, [4Fe-4S] cluster-binding protein associated with FDH, FDHγ4 (Thermococcus kodakarensis) (UniProt Q5JHV8)
T6 sequence: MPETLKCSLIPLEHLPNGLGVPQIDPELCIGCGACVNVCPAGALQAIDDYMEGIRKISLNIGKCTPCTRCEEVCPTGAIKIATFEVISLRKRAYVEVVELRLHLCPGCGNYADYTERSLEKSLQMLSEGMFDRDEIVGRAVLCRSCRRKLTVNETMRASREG

[9] = target: T7, Pyruvate:ferredoxin oxidoreductase, α subunit (Thermococcus kodakarensis) (UniProt Q5JIJ7)
T7 sequence: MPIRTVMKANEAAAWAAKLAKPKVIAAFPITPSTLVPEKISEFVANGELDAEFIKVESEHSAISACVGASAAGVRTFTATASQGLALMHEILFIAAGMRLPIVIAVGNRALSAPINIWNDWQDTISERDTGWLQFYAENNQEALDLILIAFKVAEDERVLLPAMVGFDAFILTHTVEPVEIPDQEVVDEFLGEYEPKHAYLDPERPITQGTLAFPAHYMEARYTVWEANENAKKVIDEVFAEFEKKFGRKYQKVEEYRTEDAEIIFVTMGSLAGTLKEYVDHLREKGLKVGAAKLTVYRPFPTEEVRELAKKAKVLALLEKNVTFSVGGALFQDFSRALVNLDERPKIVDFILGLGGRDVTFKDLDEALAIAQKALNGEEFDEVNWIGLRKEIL

[10] = target: T8, Geranylgeranyl reductase (Thermococcus kodakarensis) (UniProt Q5JE27)
T8 sequence: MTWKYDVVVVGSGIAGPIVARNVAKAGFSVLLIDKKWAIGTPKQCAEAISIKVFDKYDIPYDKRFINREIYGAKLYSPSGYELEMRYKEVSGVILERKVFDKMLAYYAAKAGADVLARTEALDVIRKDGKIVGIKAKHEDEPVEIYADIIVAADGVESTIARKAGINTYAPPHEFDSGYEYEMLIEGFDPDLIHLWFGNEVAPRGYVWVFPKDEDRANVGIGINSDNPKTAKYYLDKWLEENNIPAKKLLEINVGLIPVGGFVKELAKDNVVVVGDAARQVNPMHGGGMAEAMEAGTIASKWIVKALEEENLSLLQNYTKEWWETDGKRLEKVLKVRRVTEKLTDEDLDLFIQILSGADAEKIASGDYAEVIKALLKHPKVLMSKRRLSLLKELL

Measured: binding

B1: Rubrerythrin-related protein (protein, UniProt Q5JF77 1-174)
chain: MVPPELEEGLPLEKMKDFSLEELLGMAIKAEIGARKFYESLAERIDIQELKEKIEWLAGEEKKHEELLRKIYANMFPGKEVVFPKEHIGPELQPVARKLNGVQDIIDLIRWAMKAEEIAAQFYAKLEEMVDTEEKKRLMRYLSDMEWGHYYNLKAEYELLLDWEMYGQMMHVGP
binds: [1] | [2] | [3] | [4]

B2: Rubrerythrin Mn-catalase (protein, UniProt Q5JHY4 1-174)
chain: MEVTEKEIFEIAVNSEIRAKEAYEKLASMTKSDIIRDELLFLAKEEDKHREIIEKMAERFAAEGGESKKIEMEVMGEFKVIAEKMAEAIKKPDINLDEIYEIAMQAELVSEKLYKELAKYASNEKTKLLLEMLADMERNHYNILKKQYDYIMRYPELYKEELYDQLMKDINFNF
not listed: [1] | [3] | [4]
binds: all other assays above

Results are given in words; binding and its absence hold for the method and conditions named. Binding seen in cells or lysates may run through a third protein. A yes stands for co-enrichment or nearness to the bait. Other partners may have been found.
